Data: PubChem BioAssay AID2685 (National Center for Advancing Translational Sciences (NCATS), 2010)
This is one part of the list. The main result of the screen is listed elsewhere. These columns were measured beside it and carry no call. Most of these compounds were active or inconclusive in the main read-out, so they are no random draw. Words in brackets tell the shape of the fitted curve; partial curves, single points and poor fits give uncertain potencies.

Assay: qHTS Assay for Lipid Storage Modulators in Drosophila S3 Cells;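 for cell number change: cells counted by Cell Tracker Red CMTPX staining in the red channel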
Details: BODIPY lipid droplet fluorescence, 18-24 h; for cell number change: measured here: cell count max response, cells fed with added oleic acid
In short: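 Laser-scanning cytometry quantifies lipid droplet accumulation (500–530 nm total intensity; droplet/cell object ratio) in oleic acid-fed (400 uM added) Drosophila S3 cells treated with a concentration series. 20 uM Triacsin C defined 100% inhibition.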

[1] = measured here: lipid fluorescence (Fed channel) AC50, cells fed with added oleic acid
[2] = measured here: cell number channel AC50, cells fed with added oleic acid

Structure (SMILES) | cell number change | AC50 [1] | AC50 [2]
Cc1ccc(S(=O)(=O)N(C)C)cc1NC(=O)C(C)OC(=O)/C=C/c1cccs1 (stereo unspecified) | -23.2% | 14.6 µM [falling, partial curve, poor fit] | 
NS(=O)(=O)c1ccc(NC(=O)COC(=O)CSc2n[nH]c(-c3ccccc3)n2)cc1 | 0.232% | 4.11 µM [rising, single point] | 
CC1(C)N=C(c2ccccc2)C(=O)N1 | -69% |  | 29.1 µM [falling, single point]
Cc1ccc(C(NC(=O)C(C)C)c2cc([N+](=O)[O-])c3cccnc3c2O)cc1 (stereo unspecified) | 1.44% | 0.58 µM [falling, full curve] | 
CCCCN(C)C(=O)C1CCN(Cc2cccnc2)CC1 | -17.2% |  | 
Cc1ccsc1/C=N/NC(=O)C(O)c1ccccc1 (stereo unspecified) | -2.12% | 4.61 µM [rising, single point] | 
Cn1c(SCC(=O)Nc2cccc(S(=O)(=O)N3CCOCC3)c2)nnc1-c1ccncc1 | 22.6% |  | 
COc1ccc(N=c2oc3cc(O)ccc3cc2C(=O)NCC2CCCO2)c(OC)c1 (stereo unspecified) | 8.67% | 0.092 µM [rising, full curve, poor fit] | 
Cc1cccc(-c2noc(CNC(=O)c3ccoc3C)n2)c1 | 25.4% | 0.291 µM [falling, partial curve, poor fit] | 
CCc1ccc(N(CC(=O)NCc2ccc(OC)cc2)C(=O)CCC(=O)Nc2ccccn2)cc1 | -1.67% |  | 
Cc1cc(C)nc(SCc2nnc(SCc3ccccc3Cl)o2)n1 | 105% | 6.51 µM [rising, single point] | 10.3 µM [rising, partial curve]
CN1CCN(C(=O)c2ccccc2NC(=O)Cc2ccccc2)CC1 | 30.6% |  | 13 µM [rising, single point]
O=C(NC1CCCCC1)N1CCN(c2ccc(Cl)cc2)CC1 | -31.7% | 29.1 µM [falling, single point] | 20.6 µM [falling, single point]
O=C(CCCCCNC(=O)c1ccccc1Br)N=Nc1c(O)[nH]c2ccccc12 | -5.1% |  | 0.82 µM [falling, full curve, poor fit]
CCn1cc(C(=O)N2CCc3ccccc32)c(=O)c2cc(S(=O)(=O)N(C)C3CCCCC3)ccc21 | 14.9% | 2.31 µM [rising, full curve, poor fit] | 
CCN1CCN(S(=O)(=O)c2c(C)cc(C)cc2C)CC1 | -25.2% | 29.1 µM [rising, single point] | 
Cn1c(=O)c2c(nc(NCCOc3ccc(C(C)(C)C)cc3)n2C)n(C)c1=O | -15.1% | 0.326 µM [falling, full curve, poor fit] | 
O=C(CSc1nnc(NC(=O)C2CC2)s1)Nc1ccccc1 | 33.3% |  | 23.1 µM [rising, partial curve]
CCOC(=O)C(C)CC(C)C(=O)N1CCOCCOCCN(C(=O)C(C)CC(C)C(=O)OCC)CCOCC1 (stereo unspecified) | -14% | 29.1 µM [falling, single point] | 
O=C(COc1ccc(S(=O)(=O)N2CCOCC2)cc1)NC1CCCCC1 | -47.8% |  | 29.1 µM [falling, single point]

Single values from above:
In AC50 [1], `Cc1cc(C)nc(SCc2nnc(SCc3ccccc3Cl)o2)n1` has the entry 6.51 µM [rising, single point]
In AC50 [1], `CCOC(=O)C(C)CC(C)C(=O)N1CCOCCOCCN(C(=O)C(C)CC(C)C(=O)OCC)CCOCC1` (stereo unspecified) has the entry 29.1 µM [falling, single point]
In AC50 [2], `CN1CCN(C(=O)c2ccccc2NC(=O)Cc2ccccc2)CC1` has the entry 13 µM [rising, single point]
In cell number change, `Cc1ccc(S(=O)(=O)N(C)C)cc1NC(=O)C(C)OC(=O)/C=C/c1cccs1` (stereo unspecified) has the entry -23.2%

(continued)

Structure (SMILES) | cell number change | AC50 [1] | AC50 [2]
Cc1snc(SCC(=O)N/N=C(\N)COc2ccc(F)cc2)c1C#N | -18.9% |  | 
CCOC(=O)c1cc(NC(=O)CC(C)(C)CC(=O)O)ccc1N1CCCCC1 | -43.6% | 29.1 µM [falling, single point] | 18.4 µM [falling, single point]
Cc1c(Cl)c([N+](=O)[O-])nn1CCCC(=O)Nc1cccc(O)c1 |  | 1.84 µM [rising, partial curve] | 6.51 µM [rising, single point]
CCOC(=O)/C=C1\CC(=O)Nc2cc(C)c(C)cc2N1 | 4.62% | 5.8 µM [rising, full curve, poor fit] | 
Cc1ccc(OCC(=O)Nc2ccccc2C(=O)N2CCCC2)cc1 | 11% | 29.1 µM [rising, single point] | 
COC(=O)CSc1nnc(-c2cccnc2)n1-c1cccc(OC)c1 | 64.8% |  | 18.4 µM [rising, single point]
N#CC1(NC(=O)COc2cc(F)ccc2[N+](=O)[O-])CCCCC1 |  | 0.231 µM [falling, full curve] | 
COc1cccc2c(C)nc(Nc3nc(CSc4nnc(C)s4)cc(=O)[nH]3)nc12 |  | 0.651 µM [rising, full curve] | 
CCN(CC)CCNC(=O)Cn1cnc2sc(C)c(S(=O)(=O)N3CC(C)CC(C)C3)c2c1=O (stereo unspecified) | 12.6% |  | 
O=C(c1cc(-c2ccncc2)nc2ccc(Br)cc12)N1CCN(c2ccccn2)CC1 | -6.39% | 2.91 µM [rising, partial curve] | 
COc1ccc(N2CC(C(=O)N/N=C/c3cc([N+](=O)[O-])ccc3O)CC2=O)cc1 (stereo unspecified) | -14.7% | 29.1 µM [falling, single point] | 
O=C(NCc1ccc2c(c1)OCO2)c1c[nH]c2ccc(S(=O)(=O)N3CCOCC3)cc2c1=O | -10.8% | 0.461 µM [falling, partial curve, poor fit] | 
CC1CCC2(CC1)NC(=O)N(CC(=O)NC(=O)NC1CCCC1)C2=O (stereo unspecified) | 3.8% |  | 
CN1CCN(c2ccc(Cl)cc2NC(=O)c2ccc(S(=O)(=O)N(C)C)cc2)CC1 | -20.6% | 29.1 µM [falling, single point] | 
CCN(CC)S(=O)(=O)c1ccc(N2CCCC2)c(NC(=O)c2ccncc2)c1 | 30.5% |  | 
O=C(CSc1nc(-c2ccco2)cc(C(F)(F)F)n1)Nc1ccc(C(=O)N2CCOCC2)cc1 | -58.3% | 10.3 µM [falling, partial curve] | 18.4 µM [falling, partial curve]
N#C/C(=C\c1c(N2CCC(C(N)=O)CC2)nc2ccccn2c1=O)S(=O)(=O)c1ccccc1 | 36.1% |  | 3.66 µM [rising, full curve, poor fit]
CCN(CC(=O)NCc1cccs1)C(=O)COc1ccc(C(N)=O)cc1 | 5.61% |  | 
CCCCCOc1ccc(C(=O)CCC(=O)Nc2ccc(NC(C)=O)cc2)cc1 | -26.1% | 11.6 µM [rising, partial curve] | 
O=C(c1cccc(N2C(=O)C3C4C=CC(C4)C3C2=O)c1)N1CCN(c2ccccc2F)CC1 (stereo unspecified) | -2.12% | 4.61 µM [rising, single point] | 

Structure (SMILES) | cell number change | AC50 [1] | AC50 [2]
COc1cc(/C=C2\SC(=S)N(NC(=O)c3ccncc3)C2=O)ccc1O | -99.8% | 20.6 µM [falling, partial curve] | 29.1 µM [falling, single point]
COc1ccccc1NC(=O)c1ccc(COc2ccccc2Br)o1 | -22.7% | 9.2 µM [falling, partial curve] | 
CCN1CCN(c2ccc(S(=O)(=O)N3CCCCC3)cc2NC(=O)c2cccc(NC(C)=O)c2)CC1 | 70% |  | 11.6 µM [rising, partial curve]
CCN(CC)c1ccc(C(=O)N/N=C/c2ccc(OC)cc2OC)cc1 |  | 0.291 µM [rising, partial curve, poor fit] | 0.231 µM [rising, full curve, poor fit]
Cc1nc2ccccc2n1CC(=O)NC(C)C1CC2CCC1C2 (stereo unspecified) | -10.8% |  | 1.16 µM [falling, partial curve, poor fit]
CN1CCN(c2ccc(C(=O)NC3CCCCC3)cc2[N+](=O)[O-])CC1 | 5.06% | 3.66 µM [falling, single point] | 
COc1cccc(CNC(=O)CSc2nc3c(oc4ccccc43)c(=O)n2CC2CCCO2)c1 (stereo unspecified) | -6.94% |  | 
O=C(CSc1nnc(CNC(=O)c2ccc(F)cc2)o1)Nc1ccc2c(c1)OCO2 | -28.6% | 29.1 µM [falling, single point] | 
CCCn1c(CNc2ccc(Br)cc2)nc2ccccc21 | -44.5% | 6.51 µM [falling, single point] | 29.1 µM [falling, single point]
C#CCOCCOCCOCCNc1nc(N2CCN(C(=O)[C@H](Cc3cc4ccccc4[nH]3)n3cc([C@@H](N)C(C)CC)nn3)CC2)nc(N2CCN(C(=O)[C@H](Cc3cc4ccccc4[nH]3)n3cc([C@@H](N)CC(C)C)nn3)CC2)n1 (stereo partly specified) | -42.2% | 25.9 µM [falling, partial curve, poor fit] | 29.1 µM [falling, single point]
Cc1cc(C(=O)Nc2ccc(C#N)cc2)on1 | 8.26% | 29.1 µM [rising, single point] | 
C=CCc1cc(/C=N\NC(=O)CSc2nnc(CCCc3ccc(OC)c(C)c3)o2)cc(OC)c1O | -7.56% |  | 
COC(=O)c1cc(OC)c(OC)cc1NC(=S)N1CCC(C(N)=O)CC1 | 37.2% | 1.64 µM [rising, partial curve] | 0.731 µM [rising, full curve]
Cc1cc(N2CCN(C(=O)c3ccco3)CC2)n2nc(C)c(-c3ccccc3)c2n1 | -32.2% |  | 8.2 µM [falling, single point]
CSCCC(NC(=O)COc1ccccc1)C(=O)OCCOc1ccc(F)cc1 (stereo unspecified) |  |  | 7.31 µM [rising, partial curve]
COc1ccc(C(CNC(=O)COc2ccc(F)cc2Br)N2CCCC2)cc1 (stereo unspecified) | 40.5% |  | 29.1 µM [rising, single point]
O=c1cc(-c2ccccc2)nc(SCCOc2ccccc2Cl)[nH]1 | 0.596% | 0.326 µM [rising, single point] | 
CCOc1ccc(-n2cnnn2)cc1S(=O)(=O)NC1CC1 | 1.86% | 10.3 µM [rising, partial curve] | 
